Experimental data: publication PMC4615164
Results are given in words; binding and its absence hold for the method and conditions named. Binding seen in cells or lysates may run through a third protein. Some entries that bind do so weakly or less than the wild type. Tags and fused reporters may be left off the sequences shown.

The chains behind the UniProt entries cited, without tags or fusion partners.
UniProt P04147: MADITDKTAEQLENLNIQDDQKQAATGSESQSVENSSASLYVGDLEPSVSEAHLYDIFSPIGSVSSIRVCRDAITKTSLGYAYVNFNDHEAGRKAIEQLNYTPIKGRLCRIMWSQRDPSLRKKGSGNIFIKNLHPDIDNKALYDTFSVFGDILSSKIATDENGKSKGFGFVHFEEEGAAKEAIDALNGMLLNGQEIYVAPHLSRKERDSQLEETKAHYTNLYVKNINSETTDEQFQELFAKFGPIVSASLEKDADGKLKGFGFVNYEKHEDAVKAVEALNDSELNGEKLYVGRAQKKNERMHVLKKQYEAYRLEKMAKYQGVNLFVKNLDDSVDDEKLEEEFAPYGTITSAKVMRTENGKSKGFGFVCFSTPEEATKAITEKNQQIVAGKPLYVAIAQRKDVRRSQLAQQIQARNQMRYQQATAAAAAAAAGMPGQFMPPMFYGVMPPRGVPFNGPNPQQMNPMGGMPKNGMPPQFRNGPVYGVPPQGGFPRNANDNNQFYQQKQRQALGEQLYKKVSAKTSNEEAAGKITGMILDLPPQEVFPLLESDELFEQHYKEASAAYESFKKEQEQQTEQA

T1: eIF4E::CBP::ProA (eIF4E tagged with the TAP tag) (yeast (w303a line)) (UniProt P07260)
T1 sequence: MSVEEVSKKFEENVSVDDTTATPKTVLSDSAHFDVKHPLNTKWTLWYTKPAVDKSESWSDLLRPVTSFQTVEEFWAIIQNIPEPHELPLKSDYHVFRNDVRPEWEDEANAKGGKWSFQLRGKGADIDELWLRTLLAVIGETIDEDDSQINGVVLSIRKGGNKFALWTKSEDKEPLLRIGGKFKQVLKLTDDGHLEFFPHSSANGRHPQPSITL

T2: eIF4G1:TEV-ProA (yeast (w303a line)) (UniProt P39935)
T2 sequence: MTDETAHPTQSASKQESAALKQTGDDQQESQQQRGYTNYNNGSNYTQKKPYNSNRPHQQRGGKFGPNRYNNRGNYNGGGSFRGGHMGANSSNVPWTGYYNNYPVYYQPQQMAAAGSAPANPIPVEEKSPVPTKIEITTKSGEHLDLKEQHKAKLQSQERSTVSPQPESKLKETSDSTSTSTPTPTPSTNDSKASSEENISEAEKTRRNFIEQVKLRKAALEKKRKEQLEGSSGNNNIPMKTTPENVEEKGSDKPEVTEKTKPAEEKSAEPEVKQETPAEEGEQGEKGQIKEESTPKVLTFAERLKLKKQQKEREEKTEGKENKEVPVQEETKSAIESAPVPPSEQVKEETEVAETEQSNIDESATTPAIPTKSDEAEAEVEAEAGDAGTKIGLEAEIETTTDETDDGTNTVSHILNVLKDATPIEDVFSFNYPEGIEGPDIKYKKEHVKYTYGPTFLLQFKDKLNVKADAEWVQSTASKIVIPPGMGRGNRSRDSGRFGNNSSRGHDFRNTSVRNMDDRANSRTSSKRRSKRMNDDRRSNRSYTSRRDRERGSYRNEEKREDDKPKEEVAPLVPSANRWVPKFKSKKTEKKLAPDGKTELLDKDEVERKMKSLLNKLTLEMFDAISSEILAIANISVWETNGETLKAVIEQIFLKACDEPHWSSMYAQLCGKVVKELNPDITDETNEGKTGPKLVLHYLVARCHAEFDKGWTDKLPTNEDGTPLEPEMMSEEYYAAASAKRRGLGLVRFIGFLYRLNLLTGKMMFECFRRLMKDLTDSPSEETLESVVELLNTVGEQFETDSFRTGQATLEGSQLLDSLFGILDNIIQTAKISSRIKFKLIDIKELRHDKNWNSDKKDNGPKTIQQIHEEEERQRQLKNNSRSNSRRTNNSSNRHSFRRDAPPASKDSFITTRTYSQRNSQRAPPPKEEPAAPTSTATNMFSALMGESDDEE

B1: eIF4G1 (untagged, detected with the antibody raised against amino acids 542-823 of eIF4G1) (protein, UniProt P39935 1-952)
chain: T2 sequence
B2: C-terminally GFP-tagged eIF4E (eIF4E::GFP) in the PAB::ProA and eIF4G::ProA lines (protein, UniProt P07260 1-213)
chain: T1 sequence

How the values were obtained:
Experiment in all cases: co-IP; ProA-tagged factor purified on human IgG magnetic beads from lysate of yeast cross-linked in vivo with 3% formaldehyde; non-denaturing buffer A (25 mM HEPES pH 7.4, 140 mM KCl, 1.8 mM MgCl2, 0.1% IGEPAL), RNase I digestion (co-purification only marginally affected by RNase treatment), 30 min at 22 °C; western blotting
[1] = molecular target: T1, eIF4E::CBP::ProA (eIF4E tagged with the TAP tag) (yeast (w303a line))
[2] = molecular target: T2, eIF4G1:TEV-ProA (yeast (w303a line))
[3] = molecular target: PAB1::ProA (yeast (w303a line)) (UniProt P04147)

Row | Molecule | binding [1] | binding [2] | binding [3]
1 | C-terminally c-myc tagged PAB protein (PAB1) in the eIF4E::TAP line (from UniProt P04147 1-577) | binds |  | 
2 | B1 | binds |  | 
3 | B2 |  | binds | binds
